Experimental data taken from publication PMC10742985.
These are yes or no findings as the source states them, for the method shown. In cells and extracts the contact can be indirect. Some binding calls cover weakened binding; strength is not graded here.

Amino acid sequences for entries named in this document (tags omitted).
UniProt Q9NR12: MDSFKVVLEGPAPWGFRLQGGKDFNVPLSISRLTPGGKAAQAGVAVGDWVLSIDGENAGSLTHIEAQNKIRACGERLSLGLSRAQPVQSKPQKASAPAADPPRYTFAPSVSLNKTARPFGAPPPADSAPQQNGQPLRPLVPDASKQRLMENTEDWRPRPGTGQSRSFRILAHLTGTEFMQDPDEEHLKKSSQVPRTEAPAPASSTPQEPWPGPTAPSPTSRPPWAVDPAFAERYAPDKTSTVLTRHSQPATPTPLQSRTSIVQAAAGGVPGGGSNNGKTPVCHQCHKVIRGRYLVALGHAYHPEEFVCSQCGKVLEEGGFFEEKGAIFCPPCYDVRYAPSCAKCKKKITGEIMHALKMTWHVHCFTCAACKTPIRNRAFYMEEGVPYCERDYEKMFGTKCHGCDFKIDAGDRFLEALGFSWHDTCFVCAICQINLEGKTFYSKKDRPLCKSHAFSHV
UniProt Q00987: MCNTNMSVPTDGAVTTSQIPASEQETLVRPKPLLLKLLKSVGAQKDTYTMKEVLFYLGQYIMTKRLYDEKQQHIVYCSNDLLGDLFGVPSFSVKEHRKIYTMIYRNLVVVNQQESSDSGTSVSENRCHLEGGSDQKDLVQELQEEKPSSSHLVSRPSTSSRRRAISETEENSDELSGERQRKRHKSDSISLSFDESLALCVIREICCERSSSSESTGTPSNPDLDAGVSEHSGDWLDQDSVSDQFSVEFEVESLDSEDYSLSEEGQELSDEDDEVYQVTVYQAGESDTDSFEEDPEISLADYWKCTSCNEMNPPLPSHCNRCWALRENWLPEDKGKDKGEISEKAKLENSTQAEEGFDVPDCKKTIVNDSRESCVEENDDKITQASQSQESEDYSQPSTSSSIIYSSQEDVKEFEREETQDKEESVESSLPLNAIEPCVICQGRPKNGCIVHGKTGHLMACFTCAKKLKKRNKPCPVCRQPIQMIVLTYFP

T1: Vitamin D Receptor (VDR) (human (endogenous in papillary thyroid cancer tissue)) (UniProt P11473)
T1 sequence: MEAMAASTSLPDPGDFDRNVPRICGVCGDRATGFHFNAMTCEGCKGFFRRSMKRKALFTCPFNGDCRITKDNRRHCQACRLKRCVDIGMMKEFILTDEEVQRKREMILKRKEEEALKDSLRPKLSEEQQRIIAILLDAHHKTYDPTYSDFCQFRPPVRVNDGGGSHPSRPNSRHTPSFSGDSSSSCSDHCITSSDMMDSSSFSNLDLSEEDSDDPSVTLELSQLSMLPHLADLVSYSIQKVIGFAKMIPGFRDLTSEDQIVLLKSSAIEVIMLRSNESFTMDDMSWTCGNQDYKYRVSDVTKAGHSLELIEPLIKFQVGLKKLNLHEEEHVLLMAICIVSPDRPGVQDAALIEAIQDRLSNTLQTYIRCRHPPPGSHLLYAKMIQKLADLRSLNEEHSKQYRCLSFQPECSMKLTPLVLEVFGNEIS

B1: vitamin D binding protein (DBP) (protein, UniProt P02774 17-474)
chain: LERGRDYEKNKVCKEFSHLGKEDFTSLSLVLYSRKFPSGTFEQVSQLVKEVVSLTEACCAEGADPDCYDTRTSALSAKSCESNSPFPVHPGTAECCTKEGLERKLCMAALKHQPQEFPTYVEPTNDEICEAFRKDPKEYANQFMWEYSTNYGQAPLSLLVSYTKSYLSMVGSCCTSASPTVCFLKERLQLKHLSLLTTLSNRVCSQYAAYGEKKSRLSNLIKLAQKVPTADLEDVLPLAEDITNILSKCCESASEDCMAKELPEHTVKLCDNLSTKNSKFEDCCQEKTAMDVFVCTYFMPAAQLPELPDVELPTNKDVCDPGNTKVMDKYTFELSRRTHLPEVFLSKVLEPTLKSLGECCDVEDSTTCFNAKGPLLKKELSSFIDKGQELCADYSENTFTEYKKKLAERLKAKLPDATPTELAKLVNKHSDFASNCCSINSPPLYCDSEIDAELKNIL

Tests used:
[1] = molecular target: Enigma protein, encoded by the PDLIM7 gene (human (endogenous in papillary thyroid cancer tissue)) (UniProt Q9NR12); assay: co-IP; immunoprecipitation with Enigma/PDLIM7 antibody (rabbit, Proteintech) as bait from precleared RIPA lysates of fresh papillary thyroid cancer tissue (patients #1-5), Protein A/G magnetic beads, 4 °C; supernatant and beads blotted
[2] = molecular target: T1, Vitamin D Receptor (VDR) (human (endogenous in papillary thyroid cancer tissue)); assay: co-IP; reverse immunoprecipitation with VDR antibody (rat, Invitrogen) as bait from precleared RIPA lysates of fresh papillary thyroid cancer tissue, Protein A/G magnetic beads, 4 °C; supernatant and beads blotted

| Molecule | binding [1] | binding [2] |
| --- | --- | --- |
| Murine Double Minute 2 (MDM2) (from UniProt Q00987 1-491) | binds |  |
| Enigma protein, encoded by the PDLIM7 gene (from UniProt Q9NR12 1-457) |  | binds |
| B1 |  | binds |
